No constants are given. Whether binding was seen depends on the method and setting. Binding can be weak; no strength is given.

The test addresses Type IV human collagen (human). The experiment in a line: competition in the dried collagen assay.

Consider KKWHCYTYFPHHYCVYG (N-terminal Gd^D; K(Gd^D) 1, 2) [Compound ID 1014], for which the binding result is on record as “binds”.

For the origin of these results see US20080044360A1.
